## Primary screen of a compound library

Sequences of proteins named here, by UniProt entry; tags and fusion partners are left off.
UniProt E9BF75, entry or part of it: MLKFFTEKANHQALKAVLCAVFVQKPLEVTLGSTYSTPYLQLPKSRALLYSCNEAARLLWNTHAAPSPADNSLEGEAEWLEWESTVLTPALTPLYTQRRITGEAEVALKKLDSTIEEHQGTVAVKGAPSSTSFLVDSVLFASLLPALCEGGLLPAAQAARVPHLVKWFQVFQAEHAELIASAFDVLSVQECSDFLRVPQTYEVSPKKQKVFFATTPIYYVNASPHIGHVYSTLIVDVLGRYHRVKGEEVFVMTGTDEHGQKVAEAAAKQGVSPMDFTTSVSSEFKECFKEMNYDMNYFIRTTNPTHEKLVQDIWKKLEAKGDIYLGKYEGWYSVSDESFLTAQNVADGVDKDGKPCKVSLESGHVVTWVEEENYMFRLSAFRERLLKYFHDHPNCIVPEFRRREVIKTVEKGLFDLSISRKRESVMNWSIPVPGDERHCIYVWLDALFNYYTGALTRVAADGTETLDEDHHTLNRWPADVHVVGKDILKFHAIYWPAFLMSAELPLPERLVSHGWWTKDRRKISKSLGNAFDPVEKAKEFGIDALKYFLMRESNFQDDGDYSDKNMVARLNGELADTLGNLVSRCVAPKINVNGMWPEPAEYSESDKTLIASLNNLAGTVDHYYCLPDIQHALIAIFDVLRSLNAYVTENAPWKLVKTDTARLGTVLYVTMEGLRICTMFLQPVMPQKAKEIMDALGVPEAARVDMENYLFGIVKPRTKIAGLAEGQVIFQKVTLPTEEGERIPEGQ

From ChEMBL document CHEMBL3988442, “University of Dundee, Small-Polar-MMV Screening Library” (2021).

Results are percentages, as filed.
How 0% and 100% were set is not recorded. Most values in the screen are low, and negative values occur.
This is an unselected part of the compounds tested.

Mtb heat-shock: 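Assay on Mycobacterium tuberculosis, filed only as a heat shock assay from Cornell; the read-out is not stated. The concentration is filed as 10 mM, unlikely as a test dose, so the dose is not known. Direction is inferred from retests: higher values go with stronger inhibition. About 69,000 compounds were tested under these conditions; 1.4% (about 930) showed 50% or more at least once.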
LdMetRS: 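Primary screen of methionyl-tRNA synthetase; the read-out is not stated. Target: Methionyl-tRNA synthetase (putative), Leishmania donovani (UniProt E9BF75). The test concentration is not given. The values are filed as inhibition. Size under these conditions: about 68,000 compounds, about 24 of them at 50% or above in at least one test.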
Mtb growth Cornell: 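Whole-cell assay for inhibitors of Mycobacterium tuberculosis growth, labelled Cornell in the record; the read-out is not stated. The concentration is filed as 10 mM, unlikely as a test dose, so the dose is not known. The record gives no direction; compounds strong in two other growth screens of this library score well above the rest, so higher reads as stronger inhibition. Of about 53,000 compounds tested this way, about 900 (1.7%) reached 50% or more in at least one test.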

c1coc(CN2CC[C@H]3O[C@@H](COCC4CC4)CC[C@H]32)c1 read LdMetRS: 11.04%. O=C(c1ccc[nH]1)N1C[C@H](OCc2cccnc2)[C@H]2COC[C@H]21 read LdMetRS: 16.19%. Result for CCc1nc(CN2CCOC(Cn3nc(C)nc3C)C2)no1 (stereo unspecified) was Mtb heat-shock: -6.998%; LdMetRS: 13.39%; Mtb growth Cornell: 19.52%. For Cc1nc(NC(=O)NC(CS(C)(=O)=O)c2ccccc2)sc1C (stereo unspecified) the result was Mtb heat-shock: 0.9055%; LdMetRS: 9.172%; Mtb growth Cornell: 8.407%. For N#Cc1cccnc1N1CCCN(CC(=O)N2CCNC(=O)C2)CC1 the result was Mtb heat-shock: 4.733%; LdMetRS: 13.54%.

Result for COc1cccc(CCC(=O)Nc2c(C)nn(C)c2C)c1OC was Mtb heat-shock: 7.099%; LdMetRS: 11.92%; Mtb growth Cornell: -11.78%. COCCN1CC(c2nc(CC3CCN(C)CC3)no2)CCC1=O (stereo unspecified) gave Mtb heat-shock: -26.52%; LdMetRS: 11.17%; Mtb growth Cornell: -11.17%. CN(CCc1ccccc1)C(=O)CN1C(=O)OC[C@@H]1c1ccccc1 gave Mtb heat-shock: -16.06%; LdMetRS: 6.835%; Mtb growth Cornell: 17.05%. For CN(C(=O)c1cnc(N2CCOCC2)nc1)C1Cc2ccccc2C1 the result was Mtb heat-shock: -8.413%; LdMetRS: 13.75%; Mtb growth Cornell: 32.76%. Cc1nc(C(=O)N2CCCC(c3ccc4sc(N)nc4n3)C2)co1 (stereo unspecified) gave Mtb heat-shock: -19.32%; LdMetRS: 6.78%; Mtb growth Cornell: -14.49%.

O=c1cc(Cn2cncn2)nc2n1CCCN(CC1CCOCC1)C2 read Mtb heat-shock: 2.199%; LdMetRS: 10.22%; Mtb growth Cornell: 10.77%. O=C1[C@H]2CN(Cc3ccncc3)C[C@H]2CN1c1cncnc1 gave LdMetRS: 5.376%. CN1N=C(C(=O)N(Cc2ccco2)C2CC2)CCC1=O gave Mtb heat-shock: 7.36%; LdMetRS: 7.042%; Mtb growth Cornell: 10.44%. For Cc1nc(C2CCCN(C(=O)c3ccco3)C2)no1 (stereo unspecified) the result was Mtb heat-shock: -19.01%; LdMetRS: 2.083%. For Cc1cc(C(=O)N2CC[C@@]3(C[C@@H](NS(C)(=O)=O)CCO3)C2)no1 the result was Mtb heat-shock: 10.62%; LdMetRS: 20.4%; Mtb growth Cornell: -36.03%.

With CC(C)NC(=O)[C@H]1C[C@H]2OCC[C@H]2N(Cc2ccc3ccccc3n2)C1 the screen gave LdMetRS: 18.91%. CC(C)CNC(=O)c1cccc(Oc2ccc3nncn3n2)c1 gave Mtb heat-shock: -4.615%; LdMetRS: 9.677%; Mtb growth Cornell: -9.943%. CCc1n[nH]c(C(=O)N2CCCC3(CN(C)C(=O)O3)C2)c1C (stereo unspecified) read Mtb heat-shock: 6.613%; LdMetRS: 8.974%; Mtb growth Cornell: 9.796%. Cn1cc(-c2ncc3c(c2C(=O)O)CCN(CC2CC2)C3)cn1 read LdMetRS: 2.933%. Result for Cc1nnc(NCc2ccccc2F)c(C#N)c1C was Mtb heat-shock: 88.29%; LdMetRS: 24.44%.

With CCN1C[C@H]2CCN(C(C)=O)CC[C@H]2S1(=O)=O the screen gave LdMetRS: 10.37%. CCN(Cc1noc(C2CCC2)n1)C(=O)c1cn2ccsc2n1 read Mtb heat-shock: -25.41%; LdMetRS: 5.627%; Mtb growth Cornell: -18.58%. With CN(C)C[C@@H]1CN(C(=O)CCC2CCCC2)C[C@@H]1CO the screen gave Mtb heat-shock: -14.31%; LdMetRS: 14.99%; Mtb growth Cornell: 16.44%. Result for COC(=O)c1sccc1S(=O)(=O)NCCC(O)c1ccco1 (stereo unspecified) was Mtb heat-shock: -0.8566%; LdMetRS: 12.95%; Mtb growth Cornell: 36.3%. COCC(=O)NCC(Cc1cccc(F)c1)n1cccc1 (stereo unspecified) gave Mtb heat-shock: 7.625%; LdMetRS: 5.036%; Mtb growth Cornell: -44.74%.

COc1cccc(CN(C)C(=O)CN2CCN(CCO)CC2)c1 gave Mtb heat-shock: 0.5026%; LdMetRS: 15.61%; Mtb growth Cornell: 22.22%. For CN(Cc1ccco1)Cc1ccccc1CNC(=O)c1c[nH]nn1 the result was Mtb heat-shock: 11.52%; LdMetRS: 0%; Mtb growth Cornell: -11.77%. Cn1cc(N2CC3(CCN(CC4CCC4)CC3)OCC2=O)cn1 read LdMetRS: 21.04%. For CC(=O)N1CCCC1c1nccc(C)n1 (stereo unspecified) the result was Mtb heat-shock: -1.323%; LdMetRS: 11.5%. With CN(Cc1nc(C2CC2)no1)C1CCCN(c2cccnn2)C1 (stereo unspecified) the screen gave Mtb heat-shock: 5.342%; LdMetRS: 5.164%; Mtb growth Cornell: 0.8346%.

COCCN1CCC(Nc2c(F)cc(C#N)cc2F)CC1 read Mtb heat-shock: -11.39%; LdMetRS: 12.69%. With Cc1ccc(C(=O)N2CCC3(CC2)CN(c2ccccn2)CCO3)cc1 the screen gave LdMetRS: 6%. CN(C)c1ncc(C2Nc3cc(Cl)ccc3C3=NCCCN32)cn1.Cl (stereo unspecified) gave Mtb heat-shock: -6.036%; Mtb growth Cornell: 8.449%.

2 of the entries, repeated:

With CN(C)C[C@@H]1CN(C(=O)CCC2CCCC2)C[C@@H]1CO the screen gave Mtb heat-shock: -14.31%; LdMetRS: 14.99%; Mtb growth Cornell: 16.44%.
With c1coc(CN2CC[C@H]3O[C@@H](COCC4CC4)CC[C@H]32)c1 the screen gave LdMetRS: 11.04%.